Results are given in words; binding and its absence hold for the method and conditions named.
Target: T1, dysferlin-peptide B3 (15mer, analogous to wildtype) (human immunodeficiency virus type 1 | human)
T1 sequence (peptide, C-terminal amide): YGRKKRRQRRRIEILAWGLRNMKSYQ
Test: SPR; Biacore 2000 with CM5 sensor chip; recombinant C2E domain harboring DYSF p.L1341P as analyte, tested against peptides B1, B2 and B3; both purified

Substance: recombinant C2E domain of dysferlin containing the DYSF p.L1341P mutation (human) (domain or fragment)
- binding: no binding

Source: publication PMC3502493
